The other results are listed elsewhere or left out.

Protein sequences, listed by entry. Tags and fused reporters are not part of them. Lines headed by an entry give the natural chain unless they say otherwise; changes in a name come on top.
UniProt P58511: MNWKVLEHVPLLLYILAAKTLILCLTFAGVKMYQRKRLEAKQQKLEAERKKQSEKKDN
UniProt P02814: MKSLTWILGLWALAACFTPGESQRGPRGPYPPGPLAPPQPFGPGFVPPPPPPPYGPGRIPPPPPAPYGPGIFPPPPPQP
UniProt Q9NRG4: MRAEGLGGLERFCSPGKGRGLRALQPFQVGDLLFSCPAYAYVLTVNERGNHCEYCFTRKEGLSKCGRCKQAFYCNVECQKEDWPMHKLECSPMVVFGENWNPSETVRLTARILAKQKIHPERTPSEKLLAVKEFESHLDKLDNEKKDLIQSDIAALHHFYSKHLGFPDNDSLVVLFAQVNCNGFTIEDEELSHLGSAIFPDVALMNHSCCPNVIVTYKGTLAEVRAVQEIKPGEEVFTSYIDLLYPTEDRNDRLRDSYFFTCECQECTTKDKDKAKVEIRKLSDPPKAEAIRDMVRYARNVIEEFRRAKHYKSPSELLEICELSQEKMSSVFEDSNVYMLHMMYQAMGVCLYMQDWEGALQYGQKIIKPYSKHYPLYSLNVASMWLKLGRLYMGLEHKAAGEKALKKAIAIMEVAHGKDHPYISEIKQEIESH
UniProt Q99717: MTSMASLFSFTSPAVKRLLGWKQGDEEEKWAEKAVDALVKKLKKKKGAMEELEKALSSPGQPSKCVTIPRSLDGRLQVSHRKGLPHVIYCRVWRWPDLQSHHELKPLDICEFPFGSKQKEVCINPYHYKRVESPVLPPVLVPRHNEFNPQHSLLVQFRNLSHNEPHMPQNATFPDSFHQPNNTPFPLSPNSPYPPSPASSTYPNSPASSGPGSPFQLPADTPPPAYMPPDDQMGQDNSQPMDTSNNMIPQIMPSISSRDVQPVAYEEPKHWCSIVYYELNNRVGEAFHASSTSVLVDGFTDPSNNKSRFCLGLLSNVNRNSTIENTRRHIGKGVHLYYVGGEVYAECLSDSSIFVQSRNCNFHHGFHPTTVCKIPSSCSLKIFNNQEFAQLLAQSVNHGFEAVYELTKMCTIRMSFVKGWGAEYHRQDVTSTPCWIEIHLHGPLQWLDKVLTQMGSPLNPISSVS
UniProt P0C7P3: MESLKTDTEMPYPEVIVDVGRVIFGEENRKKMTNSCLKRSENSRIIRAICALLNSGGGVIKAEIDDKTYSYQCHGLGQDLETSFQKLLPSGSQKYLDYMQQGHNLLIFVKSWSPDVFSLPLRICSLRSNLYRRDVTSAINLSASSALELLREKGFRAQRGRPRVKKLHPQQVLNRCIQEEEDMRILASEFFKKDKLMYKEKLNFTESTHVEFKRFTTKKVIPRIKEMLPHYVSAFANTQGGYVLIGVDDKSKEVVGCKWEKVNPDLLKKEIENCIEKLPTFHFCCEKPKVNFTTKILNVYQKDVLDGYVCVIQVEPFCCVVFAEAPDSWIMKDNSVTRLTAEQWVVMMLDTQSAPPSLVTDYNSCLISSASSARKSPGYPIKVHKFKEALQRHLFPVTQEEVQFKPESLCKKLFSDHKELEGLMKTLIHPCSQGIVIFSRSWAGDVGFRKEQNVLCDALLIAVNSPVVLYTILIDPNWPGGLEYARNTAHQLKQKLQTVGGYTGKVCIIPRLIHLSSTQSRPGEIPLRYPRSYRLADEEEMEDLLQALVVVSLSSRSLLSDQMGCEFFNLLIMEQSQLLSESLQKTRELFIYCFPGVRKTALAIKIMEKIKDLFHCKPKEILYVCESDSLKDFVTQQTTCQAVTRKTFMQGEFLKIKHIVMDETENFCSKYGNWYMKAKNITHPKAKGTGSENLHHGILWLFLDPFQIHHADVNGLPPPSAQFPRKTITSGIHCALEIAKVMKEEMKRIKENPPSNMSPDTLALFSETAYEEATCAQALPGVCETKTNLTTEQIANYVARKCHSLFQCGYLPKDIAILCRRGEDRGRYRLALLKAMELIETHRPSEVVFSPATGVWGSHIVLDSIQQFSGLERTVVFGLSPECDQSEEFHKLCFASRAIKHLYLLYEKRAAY
UniProt O75971: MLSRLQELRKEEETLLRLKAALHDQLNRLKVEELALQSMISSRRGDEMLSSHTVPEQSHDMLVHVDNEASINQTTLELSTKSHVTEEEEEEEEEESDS
UniProt Q9H0W8: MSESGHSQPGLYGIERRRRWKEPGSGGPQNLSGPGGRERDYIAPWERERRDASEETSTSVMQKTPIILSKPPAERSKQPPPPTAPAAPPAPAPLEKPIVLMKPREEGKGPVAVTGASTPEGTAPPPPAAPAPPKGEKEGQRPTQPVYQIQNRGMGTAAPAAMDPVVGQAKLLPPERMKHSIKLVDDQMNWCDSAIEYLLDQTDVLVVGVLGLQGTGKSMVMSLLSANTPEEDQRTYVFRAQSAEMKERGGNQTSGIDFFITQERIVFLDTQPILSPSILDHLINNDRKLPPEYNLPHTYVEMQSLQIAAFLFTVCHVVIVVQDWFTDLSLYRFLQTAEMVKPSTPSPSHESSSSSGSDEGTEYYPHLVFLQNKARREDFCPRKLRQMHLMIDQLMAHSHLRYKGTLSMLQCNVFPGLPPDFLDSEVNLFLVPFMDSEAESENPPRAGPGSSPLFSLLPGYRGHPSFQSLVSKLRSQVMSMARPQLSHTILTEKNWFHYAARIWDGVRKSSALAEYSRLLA
UniProt Q9BT81: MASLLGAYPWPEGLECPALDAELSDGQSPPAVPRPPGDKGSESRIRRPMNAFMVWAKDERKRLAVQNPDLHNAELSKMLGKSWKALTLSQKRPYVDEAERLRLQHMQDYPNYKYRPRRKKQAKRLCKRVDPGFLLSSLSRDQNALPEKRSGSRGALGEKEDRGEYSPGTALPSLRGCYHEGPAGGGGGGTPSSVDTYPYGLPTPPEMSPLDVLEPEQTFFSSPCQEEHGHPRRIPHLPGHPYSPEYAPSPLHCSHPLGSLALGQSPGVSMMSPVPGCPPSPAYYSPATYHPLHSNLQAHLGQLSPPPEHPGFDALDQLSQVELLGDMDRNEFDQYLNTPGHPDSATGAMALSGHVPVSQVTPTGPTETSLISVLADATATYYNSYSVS
UniProt Q13424: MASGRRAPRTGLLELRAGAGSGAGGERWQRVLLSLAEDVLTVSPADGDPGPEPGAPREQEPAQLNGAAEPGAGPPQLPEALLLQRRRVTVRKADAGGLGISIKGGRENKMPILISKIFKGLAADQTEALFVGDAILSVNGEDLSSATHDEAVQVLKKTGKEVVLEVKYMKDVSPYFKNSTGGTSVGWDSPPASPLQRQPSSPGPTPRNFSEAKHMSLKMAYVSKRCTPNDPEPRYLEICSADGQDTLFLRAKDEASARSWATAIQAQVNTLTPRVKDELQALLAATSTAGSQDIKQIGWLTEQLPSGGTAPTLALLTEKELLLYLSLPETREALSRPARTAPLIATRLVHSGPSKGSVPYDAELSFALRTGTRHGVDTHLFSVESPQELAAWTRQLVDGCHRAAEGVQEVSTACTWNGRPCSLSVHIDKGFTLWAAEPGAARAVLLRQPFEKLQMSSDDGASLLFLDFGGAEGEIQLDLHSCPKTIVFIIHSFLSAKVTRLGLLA
UniProt Q86T20: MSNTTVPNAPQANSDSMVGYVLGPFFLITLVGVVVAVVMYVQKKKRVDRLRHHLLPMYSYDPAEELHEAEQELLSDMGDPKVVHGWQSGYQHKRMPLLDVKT
UniProt Q6J4K2: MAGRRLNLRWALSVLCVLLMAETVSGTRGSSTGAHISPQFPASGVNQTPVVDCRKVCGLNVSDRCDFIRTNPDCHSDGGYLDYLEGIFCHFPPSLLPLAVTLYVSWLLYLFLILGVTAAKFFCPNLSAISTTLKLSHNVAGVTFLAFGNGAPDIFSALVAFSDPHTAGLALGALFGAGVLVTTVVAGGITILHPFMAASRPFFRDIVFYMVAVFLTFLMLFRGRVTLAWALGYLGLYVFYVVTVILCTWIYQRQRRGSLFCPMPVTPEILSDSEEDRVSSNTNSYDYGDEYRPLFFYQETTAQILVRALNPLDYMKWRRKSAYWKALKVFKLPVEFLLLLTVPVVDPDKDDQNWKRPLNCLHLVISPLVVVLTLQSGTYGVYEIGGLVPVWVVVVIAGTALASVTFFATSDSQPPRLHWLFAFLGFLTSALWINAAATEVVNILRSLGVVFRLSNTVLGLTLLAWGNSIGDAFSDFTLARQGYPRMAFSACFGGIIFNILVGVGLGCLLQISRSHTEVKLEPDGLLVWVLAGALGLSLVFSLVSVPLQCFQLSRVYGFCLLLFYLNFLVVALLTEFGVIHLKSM
UniProt Q9NXE4: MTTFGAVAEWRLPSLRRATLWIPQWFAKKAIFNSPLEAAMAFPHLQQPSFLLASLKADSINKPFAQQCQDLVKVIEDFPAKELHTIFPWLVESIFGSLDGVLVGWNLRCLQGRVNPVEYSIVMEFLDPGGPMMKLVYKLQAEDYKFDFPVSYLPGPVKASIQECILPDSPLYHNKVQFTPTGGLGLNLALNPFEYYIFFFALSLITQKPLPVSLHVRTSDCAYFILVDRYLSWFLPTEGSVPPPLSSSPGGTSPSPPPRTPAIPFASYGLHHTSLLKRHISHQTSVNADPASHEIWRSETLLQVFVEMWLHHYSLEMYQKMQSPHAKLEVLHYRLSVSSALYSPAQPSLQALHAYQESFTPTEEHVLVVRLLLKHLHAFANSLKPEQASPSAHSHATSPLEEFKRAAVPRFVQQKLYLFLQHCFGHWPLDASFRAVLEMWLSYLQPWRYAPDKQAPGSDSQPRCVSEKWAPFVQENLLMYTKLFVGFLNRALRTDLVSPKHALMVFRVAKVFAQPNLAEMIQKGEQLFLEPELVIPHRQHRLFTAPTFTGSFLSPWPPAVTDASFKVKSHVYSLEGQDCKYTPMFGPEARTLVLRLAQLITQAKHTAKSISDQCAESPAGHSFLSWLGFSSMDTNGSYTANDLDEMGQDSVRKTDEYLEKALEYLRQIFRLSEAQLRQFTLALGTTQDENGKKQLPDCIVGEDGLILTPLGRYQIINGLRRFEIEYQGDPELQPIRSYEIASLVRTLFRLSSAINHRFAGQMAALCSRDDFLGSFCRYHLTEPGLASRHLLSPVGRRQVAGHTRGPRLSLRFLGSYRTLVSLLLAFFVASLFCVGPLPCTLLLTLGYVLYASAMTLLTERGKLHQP
UniProt P17405: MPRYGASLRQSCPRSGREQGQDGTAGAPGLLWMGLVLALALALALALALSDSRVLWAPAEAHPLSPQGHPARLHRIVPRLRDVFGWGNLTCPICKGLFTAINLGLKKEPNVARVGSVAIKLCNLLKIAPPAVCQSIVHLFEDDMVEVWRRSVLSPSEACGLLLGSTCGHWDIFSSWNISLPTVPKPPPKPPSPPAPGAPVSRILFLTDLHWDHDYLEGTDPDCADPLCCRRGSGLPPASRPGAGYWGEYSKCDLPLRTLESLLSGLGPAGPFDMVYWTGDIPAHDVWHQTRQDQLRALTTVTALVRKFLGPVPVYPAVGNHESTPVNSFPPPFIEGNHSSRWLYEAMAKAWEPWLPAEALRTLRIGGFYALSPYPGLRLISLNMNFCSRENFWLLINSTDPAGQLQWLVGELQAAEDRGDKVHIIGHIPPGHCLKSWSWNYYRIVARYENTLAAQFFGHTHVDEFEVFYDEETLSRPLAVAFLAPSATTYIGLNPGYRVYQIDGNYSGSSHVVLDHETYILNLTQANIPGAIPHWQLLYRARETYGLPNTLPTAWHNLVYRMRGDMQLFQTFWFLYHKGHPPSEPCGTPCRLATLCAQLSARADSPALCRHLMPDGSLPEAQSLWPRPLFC
UniProt Q92484: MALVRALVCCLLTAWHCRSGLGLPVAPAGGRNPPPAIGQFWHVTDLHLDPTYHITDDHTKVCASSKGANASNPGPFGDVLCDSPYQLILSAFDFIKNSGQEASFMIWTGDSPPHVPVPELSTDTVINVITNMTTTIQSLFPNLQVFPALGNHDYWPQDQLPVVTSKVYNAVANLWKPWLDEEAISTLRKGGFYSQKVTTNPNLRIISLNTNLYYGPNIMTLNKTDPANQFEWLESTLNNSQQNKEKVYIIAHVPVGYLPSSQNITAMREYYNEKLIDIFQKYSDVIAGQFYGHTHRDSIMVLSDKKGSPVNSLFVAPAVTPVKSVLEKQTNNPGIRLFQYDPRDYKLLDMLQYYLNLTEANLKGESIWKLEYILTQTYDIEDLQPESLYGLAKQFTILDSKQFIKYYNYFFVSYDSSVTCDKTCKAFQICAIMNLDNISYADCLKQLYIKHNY
UniProt O95219: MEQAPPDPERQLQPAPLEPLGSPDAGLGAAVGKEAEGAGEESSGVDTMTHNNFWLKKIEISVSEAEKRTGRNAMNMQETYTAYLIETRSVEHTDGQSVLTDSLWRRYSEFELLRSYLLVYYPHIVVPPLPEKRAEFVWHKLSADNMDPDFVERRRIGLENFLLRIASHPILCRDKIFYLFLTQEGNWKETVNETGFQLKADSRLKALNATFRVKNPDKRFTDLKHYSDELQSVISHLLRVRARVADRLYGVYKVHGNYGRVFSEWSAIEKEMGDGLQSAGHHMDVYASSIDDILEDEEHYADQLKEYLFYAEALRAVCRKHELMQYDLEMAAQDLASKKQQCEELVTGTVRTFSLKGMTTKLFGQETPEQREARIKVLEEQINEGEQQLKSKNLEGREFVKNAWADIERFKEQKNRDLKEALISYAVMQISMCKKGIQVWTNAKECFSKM

Compound in the first test: CN(CCOC1=CC=C(C=C1)C[C@H]2C(=O)NC(=O)S2)C3=CC=CC=N3 (racemic) [rosiglitazone]
The test can be described thus: log2 fold change, soluble protein after heating vs DMSO (PISA); higher = thermal stabilisation; K562 cells, 10 uM, 30 min; active = over 0.2 and 3.5 SD of the protein, either way, in both replicates (recomputed). Put shortly: (§1)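 K562 cells at 2×10^6 cells/mL were given 10 μM compound for 30 min. Aliquots then went through 3 min of heating across 48°C-58°C, were pooled, and were extracted in PBS with 0.5% NP-40 at 4°C, and the supernatant after 21,000xg for 90 min was quantified by TMTpro 16plex LC-MS/MS with channel sums equalised. Thermal stability relative to control samples, from duplicates, is given as log2 fold change.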
As for SMIM11A (UniProt P58511), the log2 fold change was inactive: -0.093.
On the same count and under the same terms, under SMR3B (UniProt P02814) stands inactive: -0.054; under SMYD2 (UniProt Q9NRG4), inactive: -0.033.
Still for that read-out and setting: in the case of SMAD5 (UniProt Q99717) it was inactive: 0.072.
The same measure, in the same setting: under SLFN14 (UniProt P0C7P3) stands inactive: -0.116; under SNAPC5 (UniProt O75971), inactive: -0.138; under SMG9 (UniProt Q9H0W8), inactive: -0.03.
In the case of SOX7 isoform 2 (UniProt Q9BT81), the log2 fold change was inactive: -0.151.
The same measure, in the same setting: in the case of SNTA1 (UniProt Q13424) it was inactive: 0.143; in that of SNX13 (UniProt Q9Y5W8), inactive: 0.065.
Take SMG6 (UniProt Q86US8): the log2 fold change is inactive: 0.352.
Turning to SMG5 (UniProt Q9UPR3), the log2 fold change was inactive: 0.032.
Still for that read-out and setting: in the case of SORBS3 (UniProt O60504) it was inactive: 0.074.

Compound in a further test: CN1C2=C(C3=C1C(=O)N(N=C3)CC4=CC(=CC=C4)N)SC(=C2)S(=O)C
The description is as above. The essentials: as §1
Turning to SOD3 (UniProt P08294), the log2 fold change is inactive: 0.011.
The same measure, in the same setting: in the case of SMIM29 (UniProt Q86T20) it was inactive: -0.133; in that of SLC8B1 (UniProt Q6J4K2), inactive: 0.086.
The same measure, in the same setting: in the case of SMYD2 (UniProt Q9NRG4) it was inactive: 0.068.
The same measure, in the same setting: under SNX25 (UniProt Q9H3E2) stands inactive: 0.12; under SMAD5 (UniProt Q99717), inactive: 0.082.
On to SLFN14 (UniProt P0C7P3), for which the log2 fold change is inactive: 0.508.
As for SMPD4 isoform 2 (UniProt Q9NXE4), the log2 fold change was inactive: 0.056.
Still for that read-out and setting: in the case of SMAD3 (UniProt P84022) it was inactive: -0.034; in that of SNAPC5 (UniProt O75971), inactive: 0.015; in that of SMPD1 (UniProt P17405), inactive: 0.04.
Still for that read-out and setting: under SMPDL3A (UniProt Q92484) stands inactive: 0.303; under SMG9 (UniProt Q9H0W8), inactive: 0.144; under SOX7 isoform 2 (UniProt Q9BT81), inactive: 0.312.
The same measure, in the same setting: under SNTA1 (UniProt Q13424) stands inactive: -0.263; under SNX13 (UniProt Q9Y5W8), inactive: 0.049.
Regarding SMG6 (UniProt Q86US8), the log2 fold change is inactive: 0.173.
The same measure, in the same setting: in the case of SMG5 (UniProt Q9UPR3) it was inactive: 0.29.

Compound in a further test: CN1CCC(CNc2ccc3ncc(-c4cccc(OC(F)(F)F)c4)n3n2)CC1
The description is as above. The essentials: as §1
Consider SOD3 (UniProt P08294), for which the log2 fold change is inactive: -0.134.
On the same count and under the same terms, in the case of SLC8B1 (UniProt Q6J4K2) it was inactive: -0.509; in that of SMYD2 (UniProt Q9NRG4), inactive: -0.049; in that of SNX4 (UniProt O95219), inactive: -0.04.
Still for that read-out and setting: in the case of SMAD5 (UniProt Q99717) it was inactive: 0.087.
The same measure, in the same setting: in the case of SLFN14 (UniProt P0C7P3) it was inactive: 0.029; in that of SMPD4 isoform 2 (UniProt Q9NXE4), inactive: -0.441; in that of SMAD3 (UniProt P84022), inactive: -0.128.
In the case of SNAPC5 (UniProt O75971), the log2 fold change was inactive: 0.071.
As to SMPD1 (UniProt P17405), the log2 fold change was inactive: -0.437.
Regarding SNIP1 (UniProt Q8TAD8), the log2 fold change is inactive: -0.036.
Still for that read-out and setting: under SMG9 (UniProt Q9H0W8) stands inactive: -0.036.
Still for that read-out and setting: in the case of SOX7 isoform 2 (UniProt Q9BT81) it was inactive: 0.128; in that of SNTA1 (UniProt Q13424), inactive: 0.133; in that of SORBS3 (UniProt O60504), inactive: 0.038.

These data come from the supplement of paper PMC10849652.
